Measured values taken from patent publication US12528773B2, “Non-lysosomal glucosylceramidase inhibitors and uses thereof” (ALECTOS THERAPEUTICS INC., priority 2020, dated 2026).
For at least one compound, name, drawing or mass did not settle the structure.

The chains behind the UniProt entries cited, without tags or fusion partners. Where a name states a change or a piece, a line headed by the entry shows the natural chain unless it says otherwise.
UniProt Q9HCG7: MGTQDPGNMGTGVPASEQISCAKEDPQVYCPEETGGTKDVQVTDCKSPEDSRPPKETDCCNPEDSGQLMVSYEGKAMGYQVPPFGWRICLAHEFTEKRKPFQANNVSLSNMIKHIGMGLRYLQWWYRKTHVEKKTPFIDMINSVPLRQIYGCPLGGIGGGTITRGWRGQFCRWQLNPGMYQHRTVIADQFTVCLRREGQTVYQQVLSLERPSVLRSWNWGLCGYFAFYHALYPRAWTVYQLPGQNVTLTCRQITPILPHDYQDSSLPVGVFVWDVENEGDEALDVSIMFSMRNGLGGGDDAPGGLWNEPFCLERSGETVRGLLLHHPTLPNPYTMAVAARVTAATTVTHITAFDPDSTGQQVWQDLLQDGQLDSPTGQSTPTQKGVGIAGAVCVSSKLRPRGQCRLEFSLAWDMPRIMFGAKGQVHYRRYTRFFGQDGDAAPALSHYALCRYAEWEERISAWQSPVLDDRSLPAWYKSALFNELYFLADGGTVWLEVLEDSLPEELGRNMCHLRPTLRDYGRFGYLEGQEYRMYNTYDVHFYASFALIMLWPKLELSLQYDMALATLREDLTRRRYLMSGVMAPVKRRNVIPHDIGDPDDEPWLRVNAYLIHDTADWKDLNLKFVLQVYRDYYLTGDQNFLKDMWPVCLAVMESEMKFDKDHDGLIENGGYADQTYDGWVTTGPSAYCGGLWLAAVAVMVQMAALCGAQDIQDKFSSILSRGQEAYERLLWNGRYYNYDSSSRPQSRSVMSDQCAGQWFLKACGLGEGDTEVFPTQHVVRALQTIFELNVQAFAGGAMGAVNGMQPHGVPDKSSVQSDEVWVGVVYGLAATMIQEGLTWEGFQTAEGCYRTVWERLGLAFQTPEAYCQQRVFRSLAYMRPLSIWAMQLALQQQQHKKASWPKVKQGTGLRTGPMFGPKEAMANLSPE

Assays:
GBA2 = GBA2 (Homo sapiens (Human), UniProt Q9HCG7); assay: Binding specificity for GBA2 over other molecules, Ki or IC50 ratio; type: biochemical
Source text: In some embodiments, one or more of the compounds according to the invention may specifically bind a GBA2. In alternative embodiments, one or more of the compounds according to the invention may specifically bind the active site of a GBA2. […] In alternative embodiments, one or more of the compounds according to the invention may specifically bind the human non-lysosomal glucosylceramidase (GBA2) over the human lysosomal glucosylceramidase (GCase) and/or the human cytosolic glucosylceramidase (GBA3). In alternative embodiments, one or more of the compounds according to the invention may specifically bind the human non-lysosomal glucosylceramidase (GBA2) over the human glucosylceramide synthase (GCS). In alternative embodiments, one or more of the compounds according to the invention may specifically bind the human non-lysosomal glucosylceramidase (GBA2) over an intestinal alpha-glucosidase, where the intestinal alpha-glucosidase may be a sucrase-isomaltase or a maltase-glucoamylase.

[1] = system: rat intestinal alpha-glucosidases; assay: Inhibition of rat intestinal alpha-glucosidases (rat intestinal lysate, glucose detection); type: biochemical; details: compound concentration 25 μM, sucrose as substrate
Experimental: Assay for Determination of Inhibition of Rat Intestinal Alpha-Glucosidases
Various concentrations of test compounds were prepared in DMSO and then diluted into buffer consisting of 100 mM citric acid, 200 mM disodium phosphate, pH 6.0. Rat intestinal acetone powder (Sigma) was dissolved to 12.5 mg/mL in assay buffer and sonicated in an ice bath, centrifuged, and the supernatant was collected, aliquoted and stored at −20° C. until use. On the day of the assay, the rat intestinal lysate was diluted to 6.25 mg/mL (sucrose reactions) and 2.1 mg/ml (maltose reactions) in assay buffer. […] The glucose produced during the reaction was detected using a commercial Amplex Red glucose detection kit from Thermo Fisher. […] Fluorescence was measured in kinetic mode on a Biotek Synergy H4 plate reader at a wavelength of 573 nm for excitation and 610 nm for emission for 15 min and quantified from the data at 10 min. […] Percent inhibition of rat intestinal alpha-glucosidases was determined by dividing the amount of glucose detected in the presence of test compound by the amount of glucose detected in the maximal enzyme activity wells. All conditions were analyzed in triplicate. […] The plate was incubated for a further 15 min at room temperature and the absorbance was read at 340 nm on a Biotek Synergy H4 plate reader. […]

O[C@H]1[C@H](O)CN(C[C@H]2CCCN(c3nc(C(F)(F)F)cs3)C2)C[C@@H]1O [Example 33, (3S,4R,5R)-1-(((R)-1-(4-(trifluoromethyl)thiazol-2-yl)piperidin-3-yl)methyl)piperidine-3,4,5-triol]
binding specificity, IC50(other molecule)/IC50(GBA2) or Ki ratio (GBA2): enhanced binding specificity | rat α-glu. (% inhib.) [1]: 9%
